From the supplement of paper PMC10849652
The other results are listed elsewhere or left out.

Amino acid sequences for entries named in this document (tags omitted). A change or cut given only in a name is not applied to a line headed by its entry.
UniProt Q9GZX9: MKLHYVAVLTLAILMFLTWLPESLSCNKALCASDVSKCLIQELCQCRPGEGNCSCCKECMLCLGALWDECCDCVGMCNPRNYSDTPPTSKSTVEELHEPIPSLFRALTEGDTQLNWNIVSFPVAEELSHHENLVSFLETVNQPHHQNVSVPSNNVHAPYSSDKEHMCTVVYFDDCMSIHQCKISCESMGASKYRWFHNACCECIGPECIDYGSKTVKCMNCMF
UniProt Q6DKK2: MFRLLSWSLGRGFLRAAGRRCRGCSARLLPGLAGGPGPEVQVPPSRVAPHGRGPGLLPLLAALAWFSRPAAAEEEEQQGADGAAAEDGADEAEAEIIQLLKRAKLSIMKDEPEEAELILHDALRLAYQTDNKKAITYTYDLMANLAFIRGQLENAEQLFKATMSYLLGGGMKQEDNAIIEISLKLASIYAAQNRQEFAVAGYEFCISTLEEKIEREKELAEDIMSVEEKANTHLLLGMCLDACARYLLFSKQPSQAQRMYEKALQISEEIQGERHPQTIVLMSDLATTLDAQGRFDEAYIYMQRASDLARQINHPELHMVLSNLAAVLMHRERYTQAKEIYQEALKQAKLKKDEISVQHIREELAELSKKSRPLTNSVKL
UniProt P61088: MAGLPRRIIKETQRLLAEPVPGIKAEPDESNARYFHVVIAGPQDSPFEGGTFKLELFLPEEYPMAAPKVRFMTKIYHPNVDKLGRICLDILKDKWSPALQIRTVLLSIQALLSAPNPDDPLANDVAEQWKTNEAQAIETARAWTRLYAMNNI
UniProt Q15631: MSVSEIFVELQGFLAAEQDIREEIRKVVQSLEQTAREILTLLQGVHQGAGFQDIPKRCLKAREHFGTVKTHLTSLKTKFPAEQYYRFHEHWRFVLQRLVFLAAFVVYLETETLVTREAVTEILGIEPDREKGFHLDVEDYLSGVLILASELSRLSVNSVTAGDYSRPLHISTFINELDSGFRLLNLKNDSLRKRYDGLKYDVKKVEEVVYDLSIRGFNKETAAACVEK
UniProt Q15819: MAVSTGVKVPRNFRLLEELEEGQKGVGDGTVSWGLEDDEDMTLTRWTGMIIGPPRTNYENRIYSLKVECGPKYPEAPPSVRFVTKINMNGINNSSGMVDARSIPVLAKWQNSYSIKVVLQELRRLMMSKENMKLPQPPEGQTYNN
UniProt Q96CW5, whole entry, looked up: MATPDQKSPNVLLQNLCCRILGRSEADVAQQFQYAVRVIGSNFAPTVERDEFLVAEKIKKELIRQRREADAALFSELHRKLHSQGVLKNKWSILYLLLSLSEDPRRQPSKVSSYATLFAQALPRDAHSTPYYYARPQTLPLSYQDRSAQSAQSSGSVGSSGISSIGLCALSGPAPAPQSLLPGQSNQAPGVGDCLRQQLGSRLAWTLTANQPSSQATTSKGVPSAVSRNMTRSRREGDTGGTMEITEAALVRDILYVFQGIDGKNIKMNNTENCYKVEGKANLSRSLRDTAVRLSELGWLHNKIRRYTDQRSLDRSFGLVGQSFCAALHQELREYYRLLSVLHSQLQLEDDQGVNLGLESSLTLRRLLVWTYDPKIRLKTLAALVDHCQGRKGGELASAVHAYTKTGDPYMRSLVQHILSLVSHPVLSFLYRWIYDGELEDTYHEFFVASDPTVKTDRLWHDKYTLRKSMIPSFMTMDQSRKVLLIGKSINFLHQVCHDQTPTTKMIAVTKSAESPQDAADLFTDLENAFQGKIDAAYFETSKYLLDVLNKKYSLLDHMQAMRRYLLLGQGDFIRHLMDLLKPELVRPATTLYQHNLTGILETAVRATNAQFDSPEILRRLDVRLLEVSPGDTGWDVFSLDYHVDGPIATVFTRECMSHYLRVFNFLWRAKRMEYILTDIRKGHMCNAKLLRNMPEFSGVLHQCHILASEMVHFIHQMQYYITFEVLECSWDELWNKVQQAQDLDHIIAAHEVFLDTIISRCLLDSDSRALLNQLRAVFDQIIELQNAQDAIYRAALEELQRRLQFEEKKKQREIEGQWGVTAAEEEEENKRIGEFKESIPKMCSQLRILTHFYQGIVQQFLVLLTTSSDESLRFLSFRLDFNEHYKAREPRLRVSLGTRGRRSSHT
UniProt Q13885, whole entry, looked up: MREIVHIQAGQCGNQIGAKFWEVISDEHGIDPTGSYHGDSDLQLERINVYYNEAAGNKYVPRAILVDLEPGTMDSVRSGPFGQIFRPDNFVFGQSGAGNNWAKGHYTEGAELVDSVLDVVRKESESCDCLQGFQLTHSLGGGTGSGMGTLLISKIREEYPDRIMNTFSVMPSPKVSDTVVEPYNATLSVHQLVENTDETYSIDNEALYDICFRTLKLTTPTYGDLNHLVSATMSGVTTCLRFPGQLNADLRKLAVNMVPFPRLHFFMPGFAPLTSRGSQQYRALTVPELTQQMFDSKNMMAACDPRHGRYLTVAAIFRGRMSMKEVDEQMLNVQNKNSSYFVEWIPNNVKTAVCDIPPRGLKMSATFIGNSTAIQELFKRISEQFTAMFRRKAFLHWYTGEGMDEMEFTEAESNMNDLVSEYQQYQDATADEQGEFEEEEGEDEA
UniProt P40222: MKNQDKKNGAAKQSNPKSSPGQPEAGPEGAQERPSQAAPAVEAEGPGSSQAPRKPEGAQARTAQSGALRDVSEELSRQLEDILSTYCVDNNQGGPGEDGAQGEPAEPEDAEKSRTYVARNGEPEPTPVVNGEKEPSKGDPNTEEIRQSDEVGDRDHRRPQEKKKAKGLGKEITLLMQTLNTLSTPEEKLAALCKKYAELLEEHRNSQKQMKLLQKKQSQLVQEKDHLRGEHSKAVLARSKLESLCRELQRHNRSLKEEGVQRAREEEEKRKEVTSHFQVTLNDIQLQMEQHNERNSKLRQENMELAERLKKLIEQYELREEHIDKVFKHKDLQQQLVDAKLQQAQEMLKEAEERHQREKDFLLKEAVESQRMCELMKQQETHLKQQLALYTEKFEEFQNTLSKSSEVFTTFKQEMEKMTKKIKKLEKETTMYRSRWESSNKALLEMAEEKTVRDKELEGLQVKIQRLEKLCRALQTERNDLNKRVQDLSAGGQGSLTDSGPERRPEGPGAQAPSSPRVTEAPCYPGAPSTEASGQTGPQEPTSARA
UniProt Q969M7: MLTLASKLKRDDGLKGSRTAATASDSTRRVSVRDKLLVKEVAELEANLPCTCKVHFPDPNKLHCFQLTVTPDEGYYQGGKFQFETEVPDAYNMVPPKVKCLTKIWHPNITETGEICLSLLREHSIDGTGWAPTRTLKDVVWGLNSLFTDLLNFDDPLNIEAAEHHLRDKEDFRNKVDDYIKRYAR
UniProt Q14166: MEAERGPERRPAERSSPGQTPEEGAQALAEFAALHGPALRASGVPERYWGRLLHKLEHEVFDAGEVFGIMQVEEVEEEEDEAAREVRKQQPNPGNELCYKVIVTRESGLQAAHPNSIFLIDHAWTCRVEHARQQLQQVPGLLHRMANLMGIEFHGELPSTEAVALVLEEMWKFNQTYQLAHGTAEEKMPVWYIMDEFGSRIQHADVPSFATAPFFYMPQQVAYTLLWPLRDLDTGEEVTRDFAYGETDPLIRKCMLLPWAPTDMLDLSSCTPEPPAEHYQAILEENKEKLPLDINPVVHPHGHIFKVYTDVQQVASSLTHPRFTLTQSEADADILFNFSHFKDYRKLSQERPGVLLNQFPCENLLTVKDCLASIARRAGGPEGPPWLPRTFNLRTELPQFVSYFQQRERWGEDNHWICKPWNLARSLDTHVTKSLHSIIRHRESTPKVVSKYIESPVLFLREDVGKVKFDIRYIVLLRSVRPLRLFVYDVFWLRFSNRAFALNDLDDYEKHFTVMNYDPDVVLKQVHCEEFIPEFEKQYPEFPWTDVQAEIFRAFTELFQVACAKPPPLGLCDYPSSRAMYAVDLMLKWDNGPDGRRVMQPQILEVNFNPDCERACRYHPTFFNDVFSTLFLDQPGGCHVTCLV
UniProt Q9UNY4: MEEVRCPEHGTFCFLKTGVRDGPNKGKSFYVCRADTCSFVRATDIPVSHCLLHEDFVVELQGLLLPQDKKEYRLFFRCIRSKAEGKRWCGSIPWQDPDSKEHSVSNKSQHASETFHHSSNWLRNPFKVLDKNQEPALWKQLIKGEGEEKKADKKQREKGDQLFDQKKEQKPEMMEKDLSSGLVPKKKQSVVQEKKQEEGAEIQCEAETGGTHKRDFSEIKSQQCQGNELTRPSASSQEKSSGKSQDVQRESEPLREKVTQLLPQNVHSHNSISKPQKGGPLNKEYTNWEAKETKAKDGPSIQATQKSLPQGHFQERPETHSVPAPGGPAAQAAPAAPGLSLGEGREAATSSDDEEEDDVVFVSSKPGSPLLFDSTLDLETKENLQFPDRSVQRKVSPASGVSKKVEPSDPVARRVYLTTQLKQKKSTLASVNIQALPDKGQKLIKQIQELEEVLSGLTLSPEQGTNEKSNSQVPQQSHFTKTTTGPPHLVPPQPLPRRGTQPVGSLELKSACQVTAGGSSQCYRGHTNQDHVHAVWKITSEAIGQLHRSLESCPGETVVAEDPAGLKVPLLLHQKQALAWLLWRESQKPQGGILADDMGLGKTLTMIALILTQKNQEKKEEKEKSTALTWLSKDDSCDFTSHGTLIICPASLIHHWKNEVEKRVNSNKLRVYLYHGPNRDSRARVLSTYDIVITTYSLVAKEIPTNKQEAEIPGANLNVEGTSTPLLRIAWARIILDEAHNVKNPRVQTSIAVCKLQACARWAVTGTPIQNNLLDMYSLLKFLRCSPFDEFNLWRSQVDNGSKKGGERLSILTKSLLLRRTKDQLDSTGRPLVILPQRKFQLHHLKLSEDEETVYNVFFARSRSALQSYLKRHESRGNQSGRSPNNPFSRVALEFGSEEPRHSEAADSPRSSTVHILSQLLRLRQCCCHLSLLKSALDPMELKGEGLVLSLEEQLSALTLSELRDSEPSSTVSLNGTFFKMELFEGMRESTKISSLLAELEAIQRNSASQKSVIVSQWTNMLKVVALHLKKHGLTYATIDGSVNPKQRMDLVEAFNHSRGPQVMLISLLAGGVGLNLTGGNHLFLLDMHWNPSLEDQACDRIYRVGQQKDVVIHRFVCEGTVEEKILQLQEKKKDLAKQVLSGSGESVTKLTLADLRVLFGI
UniProt Q9BUF5, whole entry, looked up: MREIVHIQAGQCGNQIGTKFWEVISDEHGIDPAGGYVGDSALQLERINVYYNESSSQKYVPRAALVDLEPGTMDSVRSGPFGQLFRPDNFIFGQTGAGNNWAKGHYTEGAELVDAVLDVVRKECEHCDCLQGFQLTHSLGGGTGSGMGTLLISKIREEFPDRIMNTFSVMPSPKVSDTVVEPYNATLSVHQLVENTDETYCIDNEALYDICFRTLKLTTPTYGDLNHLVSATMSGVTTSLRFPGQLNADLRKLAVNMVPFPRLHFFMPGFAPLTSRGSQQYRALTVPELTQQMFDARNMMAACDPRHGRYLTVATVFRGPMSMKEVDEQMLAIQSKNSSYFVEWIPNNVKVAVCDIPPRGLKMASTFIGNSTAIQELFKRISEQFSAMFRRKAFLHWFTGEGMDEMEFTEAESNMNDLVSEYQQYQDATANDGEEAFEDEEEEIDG
UniProt Q9GZZ9, whole entry, looked up: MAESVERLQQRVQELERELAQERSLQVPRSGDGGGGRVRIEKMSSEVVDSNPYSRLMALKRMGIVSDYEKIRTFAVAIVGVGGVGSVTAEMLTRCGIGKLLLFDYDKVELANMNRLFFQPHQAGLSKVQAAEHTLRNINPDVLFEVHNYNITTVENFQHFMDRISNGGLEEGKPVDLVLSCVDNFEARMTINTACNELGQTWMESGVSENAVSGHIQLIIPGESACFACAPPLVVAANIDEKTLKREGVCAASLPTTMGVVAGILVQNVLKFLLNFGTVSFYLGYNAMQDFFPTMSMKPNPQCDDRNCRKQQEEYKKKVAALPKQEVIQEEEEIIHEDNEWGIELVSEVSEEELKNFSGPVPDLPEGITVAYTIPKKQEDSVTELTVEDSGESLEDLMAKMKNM
UniProt Q99614: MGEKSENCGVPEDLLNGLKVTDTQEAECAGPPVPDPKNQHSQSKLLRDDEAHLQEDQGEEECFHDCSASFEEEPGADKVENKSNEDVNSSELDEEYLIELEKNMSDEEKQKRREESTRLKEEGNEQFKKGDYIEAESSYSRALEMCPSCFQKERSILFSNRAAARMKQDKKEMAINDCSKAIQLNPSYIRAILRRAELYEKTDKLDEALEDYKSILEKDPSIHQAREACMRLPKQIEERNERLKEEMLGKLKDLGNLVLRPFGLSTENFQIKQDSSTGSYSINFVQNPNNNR

Tests used:
Assay in all cases: log2 fold change, soluble protein after heating vs DMSO (PISA); higher = thermal stabilisation; K562 cells, 10 uM, 30 min; active = over 0.2 and 3.5 SD of the protein, either way, in both replicates (recomputed)
[1] = compound: COC1=CC=C(C=C1)CN2C=CC3=C2C=C(C=C3)C(=O)NO
Procedure, shortened: (§1)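 Thermal stability values are relative to control samples and come from duplicates. They are expressed as log2 fold changes. For measurement, K562 cells (2×10^6 cells/mL) received 10 μM compound for 30 min, and aliquots were heated for 3 min over 48°C-58°C, pooled, and extracted at 4°C in PBS with 0.5% NP-40. Soluble protein, the supernatant after 21,000xg for 90 min, was quantified by TMTpro 16plex LC-MS/MS with equalised channel sums.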

[2] = compound: CON(C)C(=O)N1N=C(c2cc(F)ccc2F)S[C@@]1(CCCN)c1ccccc1 [filanesib]
Procedure, shortened: as §1

[3] = compound: CO[C@H]1C[C@@H]2CC[C@@H](C)[C@@](O)(O2)C(=O)C(=O)N2CCCC[C@H]2C(=O)O[C@H]([C@H](C)C[C@@H]2CC[C@H](n3cnnn3)[C@H](OC)C2)CC(=O)[C@H](C)/C=C(\C)[C@@H](O)[C@@H](OC)C(=O)[C@H](C)C[C@H](C)/C=C/C=C/C=C/1C [zotarolimus]
Procedure, shortened: as §1

[4] = compound: COc1cc(C(=O)O)ccc1NC(=O)[C@@H]1N[C@@H](CC(C)(C)C)[C@](C#N)(c2ccc(Cl)cc2F)[C@H]1c1cccc(Cl)c1F [idasanutlin]
Procedure, shortened: as §1

[5] = compound: COc1cc(Nc2ncc3c(n2)-c2ccc(Cl)cc2C(c2c(F)cccc2OC)=NC3)ccc1C(=O)O [alisertib]
Procedure, shortened: as §1

[6] = compound: COc1cc2nc(-c3cc(F)ccc3O)nc(N[C@@H]3CNC[C@H]3C(C)(C)O)c2cc1OC
Procedure, shortened: as §1

[7] = compound: COc1cc2ncnc(Nc3ccc(F)c(Cl)c3)c2cc1OCCCN1CCOCC1 [gefitinib]
Procedure, shortened: as §1

[8] = compound: COc1cccc2cc(-c3nc([C@H]4CC[C@H](C(=O)O)CC4)n4ncnc(N)c34)[nH]c12
Procedure, shortened: as §1

[9] = compound: CS(=O)(=O)CCNCc1ccc(-c2ccc3ncnc(Nc4ccc(OCc5cccc(F)c5)c(Cl)c4)c3c2)o1 [lapatinib]
Procedure, shortened: as §1

[10] = compound: CS(=O)(=O)N1CCN(Cc2cc3nc(-c4cccc5[nH]ncc45)nc(N4CCOCC4)c3s2)CC1 [pictilisib]
Procedure, shortened: as §1

[11] = compound: CS(=O)(=O)c1ccc(-c2cnc(N)c(C(=O)Nc3ccccc3)n2)cc1
Procedure, shortened: as §1

[12] = compound: C[C@@H](Oc1cc(-c2cnn(C3CCNCC3)c2)cnc1N)c1c(Cl)ccc(F)c1Cl [crizotinib]
Procedure, shortened: as §1

[13] = compound: C[C@@H]1COCCN1C2=NC(=NC(=C2)C3(CC3)S(=O)(=O)C)C4=C5C=CNC5=CC=C4
Procedure, shortened: as §1

[14] = compound: C[C@H](C1=CC=C(C=C1)C(=O)NC2=C3C=CNC3=NC=C2)N
Procedure, shortened: as §1

[15] = compound: C[C@H](Nc1ncnc2nc[nH]c12)c1cc2cccc(Cl)c2c(=O)n1-c1ccccc1 [duvelisib]
Procedure, shortened: as §1

[16] = compound: Cc1cc(Nc2cc(CN3CCOCC3)c3nc(C)c(Cc4ccc(Cl)cc4F)n3n2)n[nH]1 [gandotinib]
Procedure, shortened: as §1

[17] = compound: Cc1cc(Nc2cc(N3CCN(C)CC3)nc(Sc3ccc(NC(=O)C4CC4)cc3)n2)n[nH]1 [tozasertib]
Procedure, shortened: as §1

[18] = compound: Cc1cc(SCc2sc(-c3ccc(C(F)(F)F)cc3)nc2C)ccc1OCC(=O)O
Procedure, shortened: as §1

[19] = compound: Cc1ccc(-n2nc(C(C)(C)C)cc2NC(=O)Nc2ccc(OCCN3CCOCC3)c3ccccc23)cc1 [doramapimod]
Procedure, shortened: as §1

[20] = compound: Cc1ccc(C(=O)N(CCCN)[C@@H](c2nc3cc(Cl)ccc3c(=O)n2Cc2ccccc2)C(C)C)cc1 [ispinesib]
Procedure, shortened: as §1

Measured: log2 fold change

TUFM (UniProt P49411)
inactive: [1] -0.036 | [2] -0.116 | [3] 0.072 | [4] -0.16 | [5] -0.008 | [6] 0.026 | [7] 0.022 | [8] 0.046 | [9] -0.022 | [10] 0.018 | [11] 0.024 | [12] 0.026 | [13] 0.152 | [14] -0.096 | [15] 0.071 | [16] -0.121 | [17] -0.012 | [18] 0.034 | [19] -0.054 | [20] -0.183

TWSG1 (UniProt Q9GZX9)
inactive: [1] -0.003 | [2] -0.002 | [3] 0.002 | [4] -0.003 | [5] 0.056 | [6] -0.01 | [7] 0.004 | [8] -0.019 | [9] -0.019 | [10] -0.021 | [11] 0.003 | [12] 0.01 | [13] 0 | [14] -0.031 | [15] 0.028 | [16] 0.027 | [17] 0.01 | [18] -0.029 | [19] -0.021 | [20] 0.104

TTC19 (UniProt Q6DKK2)
inactive: [1] -0.05 | [2] -0.078 | [3] -0.04 | [4] -0.077 | [5] -0.079 | [6] -0.058 | [7] 0.037 | [8] 0.064 | [9] 0.065 | [10] -0.037 | [11] 0.015 | [12] -0.107 | [13] 0.036 | [14] 0.025 | [15] 0.062 | [16] -0.003 | [17] -0.012 | [18] 0.021 | [19] -0.004 | [20] -0.146

UBE2N (UniProt P61088)
inactive: [1] 0.102 | [2] -0.064 | [3] 0.114 | [4] 0.045 | [5] 0.046 | [6] 0.013 | [7] -0.002 | [8] -0.046 | [9] -0.037 | [10] 0.048 | [11] 0.042 | [12] 0.168 | [13] 0.129 | [14] -0.062 | [15] 0.062 | [16] -0.056 | [17] 0.057 | [18] 0.017 | [19] -0.119 | [20] 0.126

TSN (UniProt Q15631)
inactive: [1] 0.007 | [2] -0.07 | [3] -0.023 | [4] -0.048 | [5] -0.138 | [6] 0.06 | [7] 0.006 | [8] 0.009 | [9] -0.033 | [10] 0.058 | [11] -0.072 | [12] 0.022 | [13] 0.047 | [14] -0.013 | [15] 0.055 | [16] -0.041 | [17] 0.018 | [18] 0 | [19] 0.018 | [20] 0.084

TTC17 (UniProt Q96AE7)
inactive: [1] -0.019 | [2] 0.056 | [3] -0.006 | [4] 0.015 | [5] -0.012 | [6] -0.111 | [7] -0.019 | [8] 0.06 | [9] 0.04 | [10] -0.093 | [11] 0.011 | [12] 0.067 | [13] -0.003 | [14] 0.037 | [15] -0.019 | [16] 0.265 | [17] -0.038 | [18] -0.048 | [19] 0.046 | [20] 0.03

UBE2V2 (UniProt Q15819)
inactive: [1] -0.019 | [2] -0.05 | [3] 0.009 | [4] 0.006 | [5] -0.038 | [6] 0.013 | [7] 0.039 | [8] 0.025 | [9] -0.026 | [10] 0.035 | [11] 0.032 | [12] 0.039 | [13] 0.089 | [14] -0.044 | [15] 0.039 | [16] 0.029 | [17] 0.004 | [18] -0.012 | [19] -0.031 | [20] 0.013

TUBGCP3 (UniProt Q96CW5)
inactive: [1] -0.068 | [2] 0.019 | [3] 0.007 | [4] -0.02 | [5] -0.149 | [6] -0.093 | [7] 0.361 | [8] 0.045 | [9] 0.182 | [10] -0.023 | [11] -0.015 | [12] -0.16 | [13] 0.041 | [14] 0.353 | [15] -0.095 | [16] 0.038 | [17] 0 | [18] 0.011 | [19] 0.121 | [20] -0.161

TUBB2A (UniProt Q13885)
inactive: [1] 0.029 | [2] -0.043 | [3] 0.088 | [4] 0.001 | [5] -0.018 | [6] 0.002 | [7] -0.011 | [8] 0.016 | [9] 0.005 | [10] 0.015 | [11] 0.035 | [12] -0.139 | [13] 0.078 | [14] 0.059 | [15] 0.04 | [16] -0.029 | [17] -0.06 | [18] -0.012 | [19] 0.001 | [20] -0.034

TXLNA (UniProt P40222)
inactive: [1] 0.02 | [2] -0.034 | [3] 0.008 | [4] -0.031 | [5] -0.041 | [6] 0.024 | [7] 0.012 | [8] 0.024 | [9] -0.005 | [10] 0.045 | [11] 0.003 | [12] 0.025 | [13] 0.012 | [14] -0.112 | [15] 0.03 | [16] -0.022 | [17] -0.002 | [18] 0.004 | [19] -0.019 | [20] 0.063

UBE2F isoform 2 (UniProt Q969M7)
inactive: [1] -0.068 | [2] 0.043 | [3] -0.074 | [4] 0 | [5] 0.015 | [6] 0.059 | [7] -0.074 | [8] -0.029 | [9] 0.036 | [10] 0.089 | [11] -0.005 | [12] 0.012 | [13] 0.043 | [14] -0.05 | [15] 0.054 | [16] 0.128 | [17] -0.048 | [18] 0.026 | [19] 0.024 | [20] -0.005

TTLL12 (UniProt Q14166)
inactive: [1] 0.018 | [2] 0.321 | [3] -0.013 | [4] 0.274 | [5] -0.083 | [6] 0.125 | [7] -0.148 | [8] -0.511 | [9] 0.002 | [10] -0.195 | [11] 0.044 | [12] -0.149 | [13] -0.433 | [14] 0.431 | [15] -0.135 | [16] 0.204 | [17] 0.024 | [18] 0.142 | [19] 0.358 | [20] -0.361

TTF2 (UniProt Q9UNY4)
inactive: [1] -0.023 | [2] 0.2 | [3] -0.069 | [4] -0.037 | [5] -0.309 | [6] 0.089 | [7] -0.008 | [8] -0.068 | [9] -0.077 | [10] 0.116 | [11] -0.088 | [12] -0.037 | [13] 0.174 | [14] 0.439 | [15] -0.173 | [16] 0.106 | [17] 0.003 | [18] -0.081 | [19] 0.18 | [20] -0.269

Quoted from the entries so far (4 entries):
UBE2V2 (UniProt Q15819)
inactive: [1] -0.019 | [2] -0.05 | [3] 0.009 | [4] 0.006 | [5] -0.038 | [6] 0.013 | [7] 0.039 | [8] 0.025 | [9] -0.026 | [10] 0.035 | [11] 0.032 | [12] 0.039 | [13] 0.089 | [14] -0.044 | [15] 0.039 | [16] 0.029 | [17] 0.004 | [18] -0.012 | [19] -0.031 | [20] 0.013

TUBGCP3 (UniProt Q96CW5)
inactive: [1] -0.068 | [2] 0.019 | [3] 0.007 | [4] -0.02 | [5] -0.149 | [6] -0.093 | [7] 0.361 | [8] 0.045 | [9] 0.182 | [10] -0.023 | [11] -0.015 | [12] -0.16 | [13] 0.041 | [14] 0.353 | [15] -0.095 | [16] 0.038 | [17] 0 | [18] 0.011 | [19] 0.121 | [20] -0.161

TUBB2A (UniProt Q13885)
inactive: [1] 0.029 | [2] -0.043 | [3] 0.088 | [4] 0.001 | [5] -0.018 | [6] 0.002 | [7] -0.011 | [8] 0.016 | [9] 0.005 | [10] 0.015 | [11] 0.035 | [12] -0.139 | [13] 0.078 | [14] 0.059 | [15] 0.04 | [16] -0.029 | [17] -0.06 | [18] -0.012 | [19] 0.001 | [20] -0.034

TXLNA (UniProt P40222)
inactive: [1] 0.02 | [2] -0.034 | [3] 0.008 | [4] -0.031 | [5] -0.041 | [6] 0.024 | [7] 0.012 | [8] 0.024 | [9] -0.005 | [10] 0.045 | [11] 0.003 | [12] 0.025 | [13] 0.012 | [14] -0.112 | [15] 0.03 | [16] -0.022 | [17] -0.002 | [18] 0.004 | [19] -0.019 | [20] 0.063

(further entries)

TUBB6 (UniProt Q9BUF5)
inactive: [1] 0 | [2] 0.021 | [3] 0.005 | [4] -0.002 | [5] -0.067 | [6] -0.004 | [7] 0.007 | [8] 0.075 | [9] 0.006 | [10] 0.081 | [11] 0.063 | [12] -0.07 | [13] 0.042 | [14] -0.004 | [15] 0.02 | [16] -0.018 | [17] -0.039 | [18] -0.004 | [19] 0.003 | [20] 0.007

UBA5 (UniProt Q9GZZ9)
inactive: [1] 0.065 | [2] -0.113 | [3] -0.045 | [4] -0.022 | [5] -0.057 | [6] -0.07 | [7] -0.016 | [8] 0.031 | [9] 0.013 | [10] 0.056 | [11] 0.046 | [12] -0.02 | [13] 0.026 | [14] 0.019 | [15] 0.041 | [16] -0.071 | [17] -0.025 | [18] -0.005 | [19] -0.089 | [20] 0.084

TTC1 (UniProt Q99614)
inactive: [1] -0.026 | [2] -0.004 | [3] -0.02 | [4] 0.003 | [5] -0.033 | [6] -0.008 | [7] 0.02 | [8] 0.034 | [9] -0.026 | [10] 0.036 | [11] 0.022 | [12] 0.055 | [13] -0.006 | [14] -0.024 | [15] 0.014 | [16] 0.043 | [17] -0.021 | [18] -0.035 | [19] -0.012 | [20] 0.037
